Assay results reported in US20220177870A1.
No constants are given. Whether binding was seen depends on the method and setting. Some binding calls cover weakened binding; strength is not graded here. Sequences can lack the tags named with a protein.

Sequences of proteins named here, by UniProt entry; tags and fusion partners are left off. A change or cut given only in a name is not applied to a line headed by its entry.
UniProt P55899: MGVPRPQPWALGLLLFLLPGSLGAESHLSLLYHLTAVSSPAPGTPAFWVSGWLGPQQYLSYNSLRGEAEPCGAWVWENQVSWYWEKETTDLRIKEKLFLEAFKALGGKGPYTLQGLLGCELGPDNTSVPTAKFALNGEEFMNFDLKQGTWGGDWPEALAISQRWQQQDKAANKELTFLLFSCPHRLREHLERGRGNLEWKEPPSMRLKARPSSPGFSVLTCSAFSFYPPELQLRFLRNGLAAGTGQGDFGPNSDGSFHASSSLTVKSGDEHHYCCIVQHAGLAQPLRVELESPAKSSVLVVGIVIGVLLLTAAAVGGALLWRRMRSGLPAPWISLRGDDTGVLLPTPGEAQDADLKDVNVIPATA

Tests used:
[1] = molecular target: human soluble FCRN protein (human) (UniProt P55899); experiment: BLI (GatorBio), biotinylated FcRn on streptavidin probe, VHO-Fc as analyte, pH 7 and pH 6
[2] = molecular target: human soluble FCRN protein (human) (UniProt P55899); experiment: BLI (GatorBio), pH 6 and pH 7

B1: VHO3-Fc (Fc fusion, not shown: a dimerising Fc or GST)
chain: EVQLLESGGGLVQPGGSLRLSCAASGFTFSTYWMSWVRQAPGKGLEWVSVISGDGGSTYYADSVKGRFTISRDNSKNTLYLQMNSLRAEDTAVYYCAKWKGAGRGPGALGGLDVWGQGTLVTVSS
In the case of B1, the binding [1] is reported as “binds” and the binding [2] is reported as “binds”.

B2: VHO5-Fc (Fc fusion, not shown: a dimerising Fc or GST)
chain: EVQLLESGGGLVQPGGSLRLSCAASGFTFSSYWMHWVRQAPGKGLEWVSVINYSGSSTYYADSVKGRFTISRDNSKNTLYLQMNSLRAEDTAVYYCAMGTPGELPLDYWGQGTLVTVSS
In the case of B2, the binding [1] is reported as “binds” and the binding [2] is reported as “binds”.

B3: VHO4-Fc (Fc fusion, not shown: a dimerising Fc or GST)
chain: EVQLLESGGGLVQPGGSLRLSCAASGFTFSSYGMSWVRQAPGKGLEWVSAIWSDGSSTYYADSVKGRFTISRDNSKNTLYLQMNSLRAEDTAVYYCARRTWGHQFDYWGQGTLVTVSS
For B3, the binding [1] was “binds” and the binding [2] was “binds”.
